Columns and labels:
OTABA [1] = experiment: CD titrations of dye binding to OTABA and dye displacement by OTA; type: physicochemical
[2] = Solvatochromic studies of 4QI; type: physicochemical; settings: Irel = I4QI in solvent/I4QI in H2O
Procedure: All fluorescence excitation and emission measurements were made at 25.00° C. using a PTI Alphascan-2 spectrofluorometer equipped with a 1×4 Multicell Block Peltier and temperature controller, with baseline correction and variable slit widths as specified. All fluorescence excitation spectra were recorded at the maximum emission wavelength of the fluorophore and emission spectra were recorded at the maximum excitation wavelength.
Solvatochromatic studies were completed using quartz cells (Hellma 101-QS) with a light path of 10 mm. A 100 μM stock solution of 4QI was prepared in reagent grade DMSO. Using the stock solution, 3 μM solutions of 4QI were prepared in a series of solvents: MQ water, methanol, acetonitrile, THF, chloroform and isopropyl alcohol. After mixing by inversion (×20), emission and excitation spectra for each sample were recorded as described using slit widths of 5 nm.

OTABA [3] = experiment: Fluorescent titration of dye binding to OTABA; settings: for Irel (B/F): fold increase in emission, 6 μM dye, 1.5 equiv. OTABA; for Irel dyes: intensity ratio ThT:4QI:BtC, 1 μM dye bound to 0.5 μM OTABA
Procedure: Dye interaction with OTABA and subsequent displacement by OTA was initially investigated using fluorescence spectroscopy (FIG. 17) in the previously optimized OTA binding buffer. (Fadock et al., 2017) Additions of OTABA (up to 1.5 equiv.) to the dye (6 μM) caused dose-dependent increases in ligand emission at 488 nm for ThT (240-fold increase at 1.5 equiv. OTABA, FIG. 17a), 605 nm for the 4QI (42-fold, FIG. 17b) and 640 nm for BtC (8-fold, FIG. 17c).

| Structure (SMILES) | GQ topology (OTABA [1]; after dye displacement by OTA) | GQ topology (OTABA [1]; dye bound to OTABA) | Irel ([2]; Acetonitrile) | Irel ([2]; H2O) | Irel ([2]; Isopropyl-alcohol) | Irel ([2]; Methanol) | Irel ([2]; THF) | Irel (B/F) (OTABA [3]) | Irel dyes (OTABA [3]) |
| --- | --- | --- | --- | --- | --- | --- | --- | --- | --- |
| C[n+]1ccc(/C=C/c2cn(CCCO)c3ccccc23)c2ccccc21.[I-] [4QI, 4-(2-(1-(3-hydroxypropyl)-1H-indol-3-yl)vinyl)-1-methylquinolin-1-ium iodide] | parallel | parallel | 3.6 | 1.0 | 28.3 | 5.2 | 23.9 | 42 | 5.6 |
| CCN(CC)c1ccc2cc(/C=C/c3sc4ccccc4[n+]3C)c(=O)oc2c1 [BtC] | antiparallel | hybrid |  |  |  |  |  | 8 | 15 |
| Cc1ccc2c(c1)sc(-c1ccc(N(C)C)cc1)[n+]2C [ThT, Thioflavin T] | antiparallel | antiparallel |  |  |  |  |  | 240 | 1 |
